Experimental data: PubChem BioAssay AID504444 (National Center for Advancing Translational Sciences (NCATS), 2011)
Among all 360,000 compounds or so, about 7,500 (2.1%) were called active. Inconclusive means that the source gave no clear call. Such entries were picked first, then a sample of the others. Calls follow the shape of the dose curve; as a rule, active = well fitted inhibition curve with a large enough effect; inconclusive = small, poorly fitted or top-dose-only effect, or effect the other way; inactive = flat fitted curve, though single readings scatter. Where the call is inconclusive, the potency comes from a doubtful curve fit.
% is scaled to controls: 0 for no effect and ±100 for the full control effect; potency is read from the fitted curve at half-maximal effect.

Assay: Nrf2 qHTS screen for inhibitors; also: nearly all actives have a fitted effect of over 60% in size
Conditions: A549 ARE-Fluc reporter, luciferase luminescence, 18-24 h; activity change, negative = inhibition: at 46 µM (top of the series)
Outline: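 Nrf2 activity is the BugLite luminescence, read 15 min after reagent at room temperature, following CellTiter-Fluor cytotoxicity readout (30 min, 37C). Compound titrations were applied for 18-24 h to 5000 A549 ARE_Fluc cells/well in 5% FBS OPTI-MEM.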
In the case of `COc1cc(OC)c(-c2c3cc(O)c(=O)cc-3oc3cc(O)c(O)cc23)cc1OC`, the Potency is reported as inconclusive: 16.4 µM [falling, partial curve, poor fit]. For `O=C(Nc1ccc(F)c(F)c1)c1cccnc1`, the Potency was inconclusive: 23.1 µM [falling, single point]. For `N#Cc1cnn2c(C(F)(F)F)cc(-c3ccccc3)nc12`, the Potency was inconclusive: 4.61 µM [falling, full curve, poor fit]. In the case of `Cc1ccc(NC(=O)C(C)Oc2ccccc2)cc1S(=O)(=O)N1CCCCCC1` (stereo unspecified), the Potency is reported as inconclusive: 29.1 µM [falling, single point]. With `C/C(N)=C(/C#N)C(=O)COC(=O)c1ccc(O)cc1` the “activity change, negative = inhibition” value was inactive: -1.04%. In the case of `COc1cc(NC(=O)c2ccc3c(c2)OCO3)c2ncccc2c1`, the “activity change, negative = inhibition” value is reported as inactive: -5.08%. For `CCNC(=O)CC1C(=O)N(c2ccc(C)cc2)C(=O)N1Cc1ccc(C)cc1` (stereo unspecified), the “activity change, negative = inhibition” value was inactive: -1.06%. In the case of `COc1ccc(O)c(-c2cc(-c3cccc(Br)c3)n[nH]2)c1`, the Potency is reported as inconclusive: 18.4 µM [activator, partial curve, poor fit]. With `O=C(C[n+]1cccc2ccccc21)c1ccc([N+](=O)[O-])cc1` the Potency was inconclusive: 25.9 µM [falling, single point]. In the case of `COc1ccc(-n2nnnc2CNC(=O)c2ccc3ccccc3c2)cc1`, the Potency is reported as inconclusive: 29.1 µM [falling, single point]. With `COc1ccc(NC(=O)Cn2nnc(C(=O)NCc3ccccc3Cl)c2N)cc1Cl` the “activity change, negative = inhibition” value was inactive: 15.5%. With `CCc1nc2ccccc2c(C(=O)OCC(=O)NCc2ccc3c(c2)OCO3)c1C` the “activity change, negative = inhibition” value was inactive: 0.894%. For `O=C(CC(c1ccccc1)c1cc(Br)ccc1O)NCC1(c2ccccc2)CCCC1` (stereo unspecified), the Potency was inconclusive: 29.1 µM [falling, single point]. For `Cc1c(CCC(=O)N2CCC(C(=O)O)CC2)c(=O)oc2cc3oc4c(c3cc12)CCCC4`, the Potency was inconclusive: 16.4 µM [falling, partial curve, poor fit]. In the case of `COc1ccc2nc(-n3c(C)ccc3C)sc2c1`, the Potency is reported as inconclusive: 23.1 µM [activator, single point]. For `CCc1cccc2c1NC(=O)C21N2CCCC2C(C(=O)c2ccc3ccccc3c2)C12C(=O)Nc1ccccc12` (stereo unspecified), the Potency was inconclusive: 32.6 µM [falling, single point]. In the case of `CC(=O)c1c(C)[nH]c(C(=O)Nc2ccc(C)c(C)c2)c1C`, the Potency is reported as inconclusive: 3.66 µM [activator, partial curve, poor fit]. With `Cc1ccc(NP(=O)(Nc2ccc(C)cc2)Nc2ccc(C)cc2)cc1` the Potency was inconclusive: 13 µM [falling, partial curve, poor fit]. With `COc1ccccc1N(Cc1cc2cccc(C)c2[nH]c1=O)C(=O)c1cccc(Cl)c1` the Potency was inconclusive: 29.1 µM [falling, single point]. In the case of `Nc1cccc(-c2cc3ccccc3oc2=O)c1`, the Potency is reported as inconclusive: 14.6 µM [activator, partial curve]. In the case of `CN(Cc1ccc(C(C)(C)C)cc1)C(=O)c1ccc2c(c1)OCO2`, the Potency is reported as inconclusive: 18.4 µM [falling, single point]. In the case of `COc1ccc(-c2[nH]ncc2CN2CCC(c3ccncc3)CC2)cc1F`, the Potency is reported as inconclusive: 32.6 µM [falling, single point]. In the case of `Cc1ccc(CNC(=O)C(Cc2ccccc2)NS(=O)(=O)c2ccc3c(c2)CCC(=O)N3)cc1` (stereo unspecified), the Potency is reported as inconclusive: 29.1 µM [activator, single point]. For `COc1cccc(NC(=O)c2ccc(S(=O)(=O)N3CCCCC3)cc2)c1`, the Potency was inconclusive: 0.461 µM [falling, partial curve, poor fit]. With `CC(C)(C)C(=O)N1CCN(c2ccc(NC(=O)c3ccc([N+](=O)[O-])o3)cc2)CC1` the Potency was inconclusive: 29.1 µM [activator, single point]. For `Cc1ccc(C)n1-c1nnc(N2CCCC(C(=O)NCc3ccc(F)cc3)C2)s1` (stereo unspecified), the “activity change, negative = inhibition” value was inactive: -12.4%. With `CC1(c2ccc3c(c2)OCCO3)NC(=O)N(CC(=O)Nc2ccccc2F)C1=O` (stereo unspecified) the “activity change, negative = inhibition” value was inactive: -6.86%. With `COc1ccc(OC)c(NC(=O)c2ccc3c(c2)c(C)c(C)n3Cc2ccc(F)cc2)c1` the Potency was inconclusive: 6.51 µM [falling, single point]. For `CC(C)(C)c1nnc(NC(=O)c2cc(-c3ccccc3)nc3ccccc23)s1`, the Potency was inconclusive: 23.1 µM [falling, partial curve, poor fit]. With `Cc1nc(SCC(=O)Nc2c(C)n(C)n(-c3ccccc3)c2=O)nc(C)c1C` the “activity change, negative = inhibition” value was inactive: 4.33%. For `Cc1csc(NC(=O)Cc2ccc(Cl)cc2)n1`, the Potency was inconclusive: 29.1 µM [activator, single point]. For `COc1ccc(CC2(CO)CCN(Cc3cccc4nccnc34)CC2)cc1`, the Potency was inconclusive: 1.46 µM [activator, full curve, poor fit]. In the case of `O=C(NCc1ccc2c(c1)OCO2)c1ccc(N2CCCC2=O)cc1`, the Potency is reported as inconclusive: 6.51 µM [falling, single point]. With `Nc1ccccc1-c1ccc([N+](=O)[O-])cc1` the Potency was inconclusive: 23.1 µM [falling, single point]. For `CCn1cc(S(=O)(=O)c2cc(C)cc(C)c2)c(=O)c2cc(F)c(N3CCC(C)CC3)cc21`, the Potency was inconclusive: 29.1 µM [falling, single point]. With `Cc1cc(NC(=O)C2CC2)ncc1NC(=O)c1ccccn1` the Potency was inconclusive: 14.6 µM [activator, partial curve, poor fit]. In the case of `CSc1sc(C(=O)NC(=O)NCc2ccncc2)c(C)c1-c1ccon1`, the Potency is reported as inconclusive: 18.4 µM [falling, single point]. With `COc1ccc2oc(=N)c(C(=O)Nc3ccccc3)cc2c1` the Potency was inconclusive: 1.64 µM [activator, full curve]. In the case of `COc1ccc(CC(=O)Nc2nc(-c3ccccc3)c(C(C)=O)s2)cc1OC`, the Potency is reported as inconclusive: 29.1 µM [falling, single point]. With `Cc1ccc2nc(-c3ccc(C)c(NC(=O)CSc4ccc(Cl)cc4)c3)oc2c1` the Potency was inconclusive: 5.8 µM [activator, partial curve]. In the case of `NC(=O)OCC(COC(N)=O)c1ccccc1`, the Potency is reported as inconclusive: 29.1 µM [falling, single point].
